Laboratory results from the supplement of paper PMC8326762, “A Small Molecule Inhibitor of Pex3–Pex19 Interaction Disrupts Glycosome Biogenesis and Causes Lethality in Trypanosoma brucei” (Frontiers in Cell and Developmental Biology, 2021).
Where a name gives a salt, the structure may show the parent alone. The list shows a part of the results. Single values of this set are uncertain.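 Yeast growth was read as optical density at 600 nm. The two-hybrid strains grew without histidine, so growth needed the Pex3–Pex19 binding; a compound counted as trypanosome-selective if it cut growth of the trypanosome-pair strain by more than 65% and the human-pair strain by less than 65%.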

Assays:
[1] = test system: Saccharomyces cerevisiae HF7c pdr5Δ; assay: general growth inhibition of yeast HF7c pdr5Δ in -Leu -Trp medium, relative to DMSO; higher = stronger general growth inhibition; conditions: 100 µM; 24 h
[2] = test system: human PEX3-PEX19 interaction (yeast two-hybrid); assay: growth inhibition of yeast two-hybrid strain reporting HsPex3-HsPex19 interaction, relative to DMSO; higher = stronger inhibition of human Pex3-Pex19 interaction / growth; conditions: 100 µM; 24 h; 3-aminotriazole 10 mM
[3] = test system: T. brucei Pex3-Pex19 interaction (yeast two-hybrid); assay: growth inhibition of yeast two-hybrid strain reporting TbPex3-TbPex19 interaction, relative to DMSO; higher = stronger inhibition of T. brucei Pex3-Pex19 interaction / growth; conditions: 100 µM; 24 h

Row | SMILES | general growth inhibition [1] | growth inhibition [2] | growth inhibition [3]
1 | Cc1cc2c(s1)Nc1ccccc1N=C2N1CCN(C)CC1 [Olanzapine] | 46.4% | 45.3% | 66.6%
2 | CCN1CCCC1CNC(=O)c1cc(S(N)(=O)=O)ccc1OC (racemic) [(±)-Sulpiride] | 18% | 12.6% | 37.3%
3 | c1ccc(C(NCCNC(c2ccccc2)c2ccccc2)c2ccccc2)cc1 | 46.4% | 42.1% | 57.5%
4 | CC[C@]1(O)C[C@@H]2CN(CCc3c([nH]c4ccccc34)[C@@](C(=O)OC)(c3cc4c(cc3OC)N(C)[C@H]3[C@@](O)(C(=O)OC)[C@H](OC(C)=O)[C@]5(CC)C=CCN6CC[C@]43[C@@H]65)C2)C1 [Vinblastine sulfate salt] | 48.7% | 52.7% | 63.8%
5 | CC(=O)/C(C)=N/O [2,3-Butanedione monoxime] | 10.8% | 2.22% | 25.5%
6 | NC(N)=NCc1cccc(I)c1 [m-Iodobenzylguanidine hemisulfate] | 12.4% | 8.34% | 32.9%
7 | CC[C@H]1OC(=O)[C@H](C)[C@@H](O[C@H]2C[C@@](C)(OC)[C@@H](O)[C@H](C)O2)[C@H](C)[C@@H](O[C@@H]2O[C@H](C)C[C@H](NC)[C@H]2O)[C@](C)(O)C[C@@H](C)CN(C)[C@H](C)[C@@H](O)[C@]1(C)O | 57.3% | 29.1% | 64.7%
8 | NC12CC3CC(CC(C3)C1)C2 [Amantadine hydrochloride] | 16.5% | 5% | 33.9%
9 | O=C(CCCN1CC=C(n2c(=O)[nH]c3ccccc32)CC1)c1ccc(F)cc1 [Droperidol] | 35.6% | 36.1% | 64.6%
10 | NC(=O)CC[C@H](N)C(=O)O [L-Glutamine] | 32.7% | 29% | 58.3%
11 | Nc1cc(=O)[nH]c(N)n1 [2,4-Diamino-6-pyrimidinone] | 32.1% | 37.3% | 56.3%
12 | CC(C[N+](C)(C)C)OC(N)=O (configuration not stated) [Bethanechol chloride] | 31% | 37.3% | 53.9%
13 | CC(=O)O[C@H]1Cc2ccccc2N(C(N)=O)c2ccccc21 | 60.6% | 45.4% | 65.7%
14 | CCCN(CCC)C(=O)C(CCC(=O)O)NC(=O)c1ccccc1 (configuration not stated) [Proglumide] | 51.6% | 39.2% | 62.2%
15 | N=C(N)NCCC[C@H](N)C(=O)O [L-Arginine] | 22.4% | 28.7% | 49.4%
16 | Cc1cccc(C)c1NC(=O)C(C)N (configuration not stated) [Tocainide hydrochloride] | 37.6% | 50% | 61.1%
17 | COc1ccc2[nH]c([S@@+]([O-])Cc3ncc(C)c(OC)c3C)nc2c1 [Esomeprazole magnesium dihydrate] | 82.8% | 77.8% | 78.8%

Taken from above:
CC[C@H]1OC(=O)[C@H](C)[C@@H](O[C@H]2C[C@@](C)(OC)[C@@H](O)[C@H](C)O2)[C@H](C)[C@@H](O[C@@H]2O[C@H](C)C[C@H](NC)[C@H]2O)[C@](C)(O)C[C@@H](C)CN(C)[C@H](C)[C@@H](O)[C@]1(C)O – growth inhibition [3]: 64.7%
c1ccc(C(NCCNC(c2ccccc2)c2ccccc2)c2ccccc2)cc1 – general growth inhibition [1]: 46.4%

(further entries)

Row | SMILES | general growth inhibition [1] | growth inhibition [2] | growth inhibition [3]
18 | COC(=O)C(C)(N)Cc1ccc(O)cc1 (racemic) [alpha-Methyl-DL-tyrosine methyl ester hydrochloride] | 41.6% | 49% | 60.5%
19 | Cc1cc(C(C)(C)C)cc(C)c1CC1=NCCN1 [Xylometazoline hydrochloride] | 54.3% | 46.2% | 61%
20 | Cc1ccc(=O)n(-c2ccccc2)c1 [Pirfenidone] | 48.7% | 46.4% | 67.8%
21 | COc1cc2c(cc1O)CC[C@@H]1[C@@H]2CC[C@]2(C)[C@@H](O)CC[C@@H]12 [2-methoxyestradiol] | 38% | 44.5% | 50.1%
22 | CCN(CC)CCOCCOC(=O)C1(c2ccccc2)CCCC1 [Carbetapentane citrate] | 6.8% | 1.43% | 23.1%
23 | CC1(C)CCC2=C(O1)c1ccccc1C(=O)C2=O [beta-Lapachone] | 67.6% | 72.1% | 69.7%
24 | CCc1cccc(N(C)C(=N)Nc2cccc3ccccc23)c1 | 9.25% | 5.16% | 26.2%
25 | O=c1[nH]c(=O)n([C@H]2C[C@H](O)[C@@H](CO)O2)cc1Br [5-Bromo-2'-deoxyuridine] | 35% | 41.5% | 55%
26 | CC(C)(C)[C@]1(O)CCN2C[C@H]3c4ccccc4CCc4cccc(c43)[C@@H]2C1 [(+)-Butaclamol hydrochloride] | 23.8% | 16.1% | 50.5%
27 | CN(C)c1ccc(O)c2c1C[C@H]1C[C@H]3[C@H](N(C)C)C(O)=C(C(N)=O)C(=O)[C@@]3(O)C(O)=C1C2=O [Minocycline hydrochloride] | 29% | 32.4% | 53%
28 | N[C@H](C(=O)O)[C@H](Cc1ccccc1)C(=O)O [L-Beta-threo-benzyl-aspartate] | 45.8% | 42.5% | 61.1%
29 | CN1CCc2cc(Cl)c(O)cc2[C@@H](c2ccccc2)C1 | 33.9% | 39.8% | 64.9%
30 | NCCS(=O)(=O)O [Taurine] | 49.6% | 51.9% | 65%
31 | CC(C)NNC(=O)c1ccncc1 [Iproniazid phosphate] | 20.4% | 10.1% | 39.7%
32 | C(=C\c1ccccc1)/CN1CCN(C(c2ccccc2)c2ccccc2)CC1 [Cinnarizine] | 5.26% | 7.7% | 16.8%
33 | CC(C)C(=O)c1c(C(C)C)nn2ccccc12 [Ibudilast] | 41.5% | 37.6% | 38.8%
34 | Nc1nc(Cl)nc2c1ncn2[C@@H]1O[C@H](CO)[C@@H](O)[C@H]1O [2-Chloroadenosine] | 39.2% | 42.9% | 55.4%
